Source: the supplement of paper PMC9454738
Where a name gives a salt, the structure may show the parent alone. The list shows a part of the results. This data set is noisy: repeats of one test often differ as much as different tests do.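 Test systems: triple-negative MDA-MB-231 breast cancer cells and their brain-metastatic MDA-MB-231BRM derivative, each stably carrying empty vector, full-length GLI1 or truncated tGLI1. Viability after 48 h was read by CellTiter-Blue and expressed against 1% DMSO vehicle. A compound was tGLI1-selective if it lowered viability 20% more in tGLI1 cells than in vector and GLI1 cells.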

What was measured:
Test in all cases: cell viability relative to vehicle (DMSO) control (fraction); higher = more viable cells (less growth inhibition)
Conditions in all cases: treatment time 48 h
MDA-MB-231 GLI1 = system: MDA-MB-231 GLI1
MDA-MB-231 Vector = system: MDA-MB-231 Vector
MDA-MB-231 tGLI1 = system: MDA-MB-231 tGLI1
MDA-MB-231BRM GLI1 = system: MDA-MB-231BRM GLI1
MDA-MB-231BRM Vector = system: MDA-MB-231BRM Vector
MDA-MB-231BRM tGLI1 = system: MDA-MB-231BRM tGLI1

Structure (SMILES) | cell viability (MDA-MB-231 GLI1; 0.05 µM) | cell viability (MDA-MB-231 GLI1; 0.5 µM) | cell viability (MDA-MB-231 GLI1; 5 µM) | cell viability (MDA-MB-231 Vector; 0.05 µM) | cell viability (MDA-MB-231 Vector; 0.5 µM) | cell viability (MDA-MB-231 Vector; 5 µM) | cell viability (MDA-MB-231 tGLI1; 0.05 µM) | cell viability (MDA-MB-231 tGLI1; 0.5 µM) | cell viability (MDA-MB-231 tGLI1; 5 µM) | cell viability (MDA-MB-231BRM GLI1; 0.05 µM) | cell viability (MDA-MB-231BRM GLI1; 0.5 µM) | cell viability (MDA-MB-231BRM GLI1; 5 µM) | cell viability (MDA-MB-231BRM Vector; 0.05 µM) | cell viability (MDA-MB-231BRM Vector; 0.5 µM) | cell viability (MDA-MB-231BRM Vector; 5 µM) | cell viability (MDA-MB-231BRM tGLI1; 0.05 µM) | cell viability (MDA-MB-231BRM tGLI1; 0.5 µM) | cell viability (MDA-MB-231BRM tGLI1; 5 µM)
COc1ccc(C(=O)N2CCCC2=O)cc1 [Aniracetam] | 1.02 | 1.13 | 1.08 | 1.19 | 1.17 | 1.1 | 1.15 | 1.31 | 1.06 | 1.06 | 1.04 | 1.01 | 1.02 | 1.02 | 1.03 | 1.1 | 1.01 | 1.04
Cn1cc(C2=C(c3cn(C4CCN(Cc5ccccn5)CC4)c4ccccc34)C(=O)NC2=O)c2ccccc21 | 1.59 | 1.74 | 1.53 | 1.45 | 1.27 | 1.01 | 1.17 | 1.49 | 1.04 | 0.926 | 0.97 | 0.921 | 0.943 | 0.978 | 0.985 | 0.942 | 0.904 | 0.952
C/C(O)=C(\C#N)C(=O)Nc1cc(Br)ccc1Br | 2.26 | 3.13 | 2.06 | 1.42 | 1.29 | 1.32 | 1.29 | 1.43 | 1.41 | 0.783 | 0.823 | 0.649 | 0.922 | 0.792 | 0.707 | 1.22 | 1.07 | 1.16
C[C@@H]1CC[C@H]2[C@@H](C)C(=O)O[C@@H]3O[C@@]4(C)CC[C@@H]1[C@]32OO4 [Artemisinin] | 1.15 | 1.07 | 1.04 | 0.899 | 0.841 | 0.908 | 1.18 | 0.996 | 0.916 | 1.09 | 1.07 | 1.07 | 1.04 | 1.04 | 1.03 | 1.07 | 1.01 | 1.03
CCN1CCN(C(=O)Cc2ccc(Nc3ncc(F)c(Nc4ccc(C(=O)Nc5ccccc5Cl)cc4)n3)cc2)CC1 [Aurora A Inhibitor I] | 1.18 | 1.01 | -0.246 | 2.26 | 0.982 | -0.139 | 0.971 | 0.897 | -0.177 | 1.15 | 1.06 | 0.581 | 1.13 | 0.963 | 0.566 | 0.987 | 1.06 | 0.607
C=C1C[C@@H]2[C@H](CC[C@]3(C)C(=O)CC[C@@H]23)[C@@]2(C)C=CC(=O)C=C12 [Exemestane] | 0.999 | 1.11 | 1.13 | 1.16 | 1.17 | 1.29 | 1.08 | 1.12 | 1.13 | 1.07 | 1.02 | 0.988 | 1.04 | 1.06 | 1 | 1.08 | 1.06 | 1.1
Cc1ccccc1-n1c(Cn2ncc3c(N)ncnc32)nc2cccc(C)c2c1=O | 1.08 | 0.98 | 1.18 | 1.69 | 1.22 | 1.05 | 0.894 | 1.09 | 0.962 | 1.12 | 1.03 | 0.846 | 1.06 | 1.03 | 0.685 | 0.989 | 1.09 | 0.983
COC[C@H]1OC(=O)c2coc3c2[C@@]1(C)C1=C(C3=O)[C@@H]2CCC(=O)[C@@]2(C)C[C@H]1OC(C)=O [Wortmannin] | 1.21 | 1.18 | 0.765 | 1.24 | 1.07 | 1.2 | 1.29 | 1.17 | 0.855 | 1.02 | 0.976 | 0.962 | 1.01 | 1.09 | 0.879 | 1.06 | 1.04 | 0.925
COc1ccc(N(C(=O)Oc2c(C)cccc2C)c2ccnc(Nc3ccc(N4CCN(C)CC4)cc3)n2)c(OC)c1 | 2.19 | 2.9 | 0.0531 | 1.46 | 1.36 | 0.0126 | 1.47 | 1.43 | -0.113 | 0.819 | 0.835 | 0.554 | 0.86 | 0.814 | 0.641 | 1.13 | 1.01 | 0.92
N.N.[Cl][Pt][Cl] [Cisplatin] | 1.31 | 1.02 | 1.11 | 1.32 | 1.1 | 1.21 | 1.25 | 1.05 | 1.04 | 1.06 | 1.01 | 0.997 | 0.957 | 1.03 | 1.02 | 1.04 | 1.04 | 1.09
CC(C)(C)c1cc(C=C(C#N)C#N)cc(Br)c1O | 1.17 | 1.18 | 1.48 | 1.4 | 1.04 | 1.23 | 1.06 | 1.22 | 1.27 | 1.07 | 1.07 | 0.897 | 1.17 | 1.07 | 0.933 | 1.01 | 1.09 | 0.874
O=c1[nH]c2ccc(Cl)cc2c(N[C@@H]2CN3CCC2CC3)c1-c1nc2ccccc2[nH]1 | 0.824 | 0.413 | 0.00479 | 0.874 | 0.483 | 0.0444 | 0.999 | 0.427 | 0.0117 | 1.14 | 1.3 | 0.361 | 1.27 | 1.38 | 0.28 | 1.2 | 1.3 | 0.0506
COc1ccc2c(c1)/C(=C/c1cnc[nH]1)C(=O)N2 | 1.22 | 1.85 | 0.847 | 0.785 | 0.716 | 0.377 | 0.729 | 0.772 | 0.514 | 0.62 | 0.488 | 0.444 | 0.602 | 0.477 | 0.397 | 0.746 | 0.674 | 0.602
Cn1c(CCCC(=O)O)nc2cc(N(CCCl)CCCl)ccc21 [Bendamustine HCL] | 0.931 | 0.993 | 1.07 | 0.99 | 1.11 | 1.19 | 1.02 | 1.12 | 1.05 | 0.978 | 1.01 | 0.968 | 0.991 | 0.939 | 0.962 | 0.966 | 0.989 | 1
CC(C)(C)c1cc(C=C(C#N)C#N)cc(C(C)(C)C)c1O [Tyrphostin 9] | 0.716 | 0.916 | 0.133 | 0.745 | 0.966 | 0.316 | 0.772 | 0.883 | 0.223 | 1.21 | 0.993 | 0.822 | 1.22 | 1.05 | 0.769 | 1.09 | 0.95 | 0.699
CC(O)(CS(=O)(=O)c1ccc(F)cc1)C(=O)Nc1ccc(C#N)c(C(F)(F)F)c1 (stereo unspecified) [Bicalutamide (Casodex)] | 1.11 | 1.04 | 1.13 | 0.855 | 1.19 | 1.2 | 1.15 | 1.06 | 1.05 | 1.02 | 0.986 | 0.695 | 1.02 | 0.985 | 0.925 | 1.12 | 0.995 | 0.993
CN[C@@H]1C[C@H]2O[C@@](C)([C@@H]1OC)n1c3ccccc3c3c4c(c5c6ccccc6n2c5c31)C(=O)NC4 [Staurosporine] | -0.0139 | -0.127 | -0.13 | -0.00682 | -0.0511 | -0.0599 | -0.0405 | -0.121 | -0.102 | 1.27 | 1.17 | 0.801 | 1.22 | 1.06 | 0.878 | 1.08 | 1.06 | 0.687

Some of these compounds in order of SMILES length, low to high.
Structure (SMILES) | cell viability (MDA-MB-231 GLI1; 0.05 µM) | cell viability (MDA-MB-231 GLI1; 0.5 µM) | cell viability (MDA-MB-231 GLI1; 5 µM) | cell viability (MDA-MB-231 Vector; 0.05 µM) | cell viability (MDA-MB-231 Vector; 0.5 µM) | cell viability (MDA-MB-231 Vector; 5 µM) | cell viability (MDA-MB-231 tGLI1; 0.05 µM) | cell viability (MDA-MB-231 tGLI1; 0.5 µM) | cell viability (MDA-MB-231 tGLI1; 5 µM) | cell viability (MDA-MB-231BRM GLI1; 0.05 µM) | cell viability (MDA-MB-231BRM GLI1; 0.5 µM) | cell viability (MDA-MB-231BRM GLI1; 5 µM) | cell viability (MDA-MB-231BRM Vector; 0.05 µM) | cell viability (MDA-MB-231BRM Vector; 0.5 µM) | cell viability (MDA-MB-231BRM Vector; 5 µM) | cell viability (MDA-MB-231BRM tGLI1; 0.05 µM) | cell viability (MDA-MB-231BRM tGLI1; 0.5 µM) | cell viability (MDA-MB-231BRM tGLI1; 5 µM)
Cn1c(CCCC(=O)O)nc2cc(N(CCCl)CCCl)ccc21 [Bendamustine HCL] | 0.931 | 0.993 | 1.07 | 0.99 | 1.11 | 1.19 | 1.02 | 1.12 | 1.05 | 0.978 | 1.01 | 0.968 | 0.991 | 0.939 | 0.962 | 0.966 | 0.989 | 1
Cc1ccccc1-n1c(Cn2ncc3c(N)ncnc32)nc2cccc(C)c2c1=O | 1.08 | 0.98 | 1.18 | 1.69 | 1.22 | 1.05 | 0.894 | 1.09 | 0.962 | 1.12 | 1.03 | 0.846 | 1.06 | 1.03 | 0.685 | 0.989 | 1.09 | 0.983
COc1ccc(N(C(=O)Oc2c(C)cccc2C)c2ccnc(Nc3ccc(N4CCN(C)CC4)cc3)n2)c(OC)c1 | 2.19 | 2.9 | 0.0531 | 1.46 | 1.36 | 0.0126 | 1.47 | 1.43 | -0.113 | 0.819 | 0.835 | 0.554 | 0.86 | 0.814 | 0.641 | 1.13 | 1.01 | 0.92
